{
  "sequences": {"note": "Amino acid sequences for entries named in this document (tags omitted).", "UniProt Q0JBA9, entry or part of it": "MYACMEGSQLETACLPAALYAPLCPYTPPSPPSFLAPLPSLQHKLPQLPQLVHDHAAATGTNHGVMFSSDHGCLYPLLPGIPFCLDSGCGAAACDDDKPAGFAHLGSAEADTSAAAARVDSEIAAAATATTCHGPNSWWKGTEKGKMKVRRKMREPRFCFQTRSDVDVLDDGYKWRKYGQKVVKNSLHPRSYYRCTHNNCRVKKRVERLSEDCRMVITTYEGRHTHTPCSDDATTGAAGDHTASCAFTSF"},
  "source": "paper PMC7819943",
  "about": "“Rice protein-binding microarrays: a tool to detect cis-acting elements near promoter regions in rice”",
  "note": "The list shows a part of the results.",
  "data": [
    {"target": "OsWRKY34 (Oryza sativa, UniProt Q0JBA9 1-250)", "test": "protein-binding microarray (RPBM); PBS, 2% BSA, 51.3 ng/ul salmon testes DNA, 50 uM zinc acetate, 200 nM TF, 25 C, 1 h; high values mean tight binding", "conditions": "protein: recombinant; tags: N-terminal polyhistidine and DsRed monomer fusion (pET32a); label: CyDye5-dUTP incorporated in the synthesized complementary strand; 3' TTTTT single-stranded linker to array surface; dsDNA, one strand shown", "procedure,_shortened": "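Binding signal is reported as fluorescence intensity per feature (arbitrary units) from an Axon 4000B scanner. Incubation used 200 nM of each Ni–NTA-purified, N-terminally polyhistidine- and DsRed-fused transcription factor from E. coli BL21-CodonPlus on a double-stranded custom Agilent array for 1 h at 25 °C, with 50 µM zinc acetate in the buffer, followed by washing.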", "values": [
      {"sequence": "GTACGTACATACCATATAGGAAGAGGGTGGGTTGTTGGGGCGGAGTCACCTAGTGCAG", "binding signal": "10700 fluorescence intensity (a.u.)"},
      {"sequence": "TGCGCGCTCGCTCTTCTCCACATCTCGTGGACTCGTTCGTCGGAGTCACCTAGTGCAG", "binding signal": "8280 fluorescence intensity (a.u.)"},
      {"sequence": "GCTCCTGTCTGATTCTGTTACATGTCTTGCTTGGCCAGAGCGGAGTCACCTAGTGCAG", "binding signal": "9780 fluorescence intensity (a.u.)"},
      {"sequence": "CCAAACCCAACCCTCGACGCCAATTAAACACCAATTTTCTCGGAGTCACCTAGTGCAG", "binding signal": "8920 fluorescence intensity (a.u.)"},
      {"sequence": "CTATGCTCATCCAATCTCTGAAGCTCAGACCATCTCTCCACGGAGTCACCTAGTGCAG", "binding signal": "8100 fluorescence intensity (a.u.)"},
      {"sequence": "AGCTCGTTACCCCAAACCCTACCCATCCGCGGTCAGCTATCGGAGTCACCTAGTGCAG", "binding signal": "8560 fluorescence intensity (a.u.)"},
      {"sequence": "ACCTTTGCTCACGATCCCAATGGCTTTAATTATGTACCACCGGAGTCACCTAGTGCAG", "binding signal": "8830 fluorescence intensity (a.u.)"},
      {"sequence": "TTTCATATCTACACCTATCTCTAGTATTTTTTTCATGAATCGGAGTCACCTAGTGCAG", "binding signal": "9840 fluorescence intensity (a.u.)"},
      {"sequence": "ACCCTGACAAAATTCACCAGTACTCCTAATCCACGCCACCCGGAGTCACCTAGTGCAG", "binding signal": "9520 fluorescence intensity (a.u.)"},
      {"sequence": "GTCTTGAGTTGAAAATGTTACTGTTTTTTTTCTACAAACTCGGAGTCACCTAGTGCAG", "binding signal": "8060 fluorescence intensity (a.u.)"},
      {"sequence": "AAAAAAATCTCGTTGTTACTGTCTATAGATCACTATATTACGGAGTCACCTAGTGCAG", "binding signal": "8570 fluorescence intensity (a.u.)"},
      {"sequence": "TTACATATTTAATCTCGTGCAAGCTTACAACATGTTCTATCGGAGTCACCTAGTGCAG", "binding signal": "8700 fluorescence intensity (a.u.)"},
      {"sequence": "CGAGTGCAATGTGATTGGTAGGGGTGGCTCAGGGAAAGTGCGGAGTCACCTAGTGCAG", "binding signal": "8120 fluorescence intensity (a.u.)"},
      {"sequence": "GTACCCCTAACTGTTACTCCCTCCGTTTCACAATGTAAGTCGGAGTCACCTAGTGCAG", "binding signal": "9130 fluorescence intensity (a.u.)"},
      {"sequence": "TTCTACCCTGGTGGCGACCTCCACTCGCTCTGCCACCGCACGGAGTCACCTAGTGCAG", "binding signal": "10600 fluorescence intensity (a.u.)"},
      {"sequence": "TCTCTCTTTTCTTTATCCTACTATCTCTGTTTACCTTTTCCGGAGTCACCTAGTGCAG", "binding signal": "12100 fluorescence intensity (a.u.)"},
      {"sequence": "TCTTTTCACTCCTGGCTAACCCTAGTACTAGTATTGCATTCGGAGTCACCTAGTGCAG", "binding signal": "10900 fluorescence intensity (a.u.)"},
      {"sequence": "CCATTCCTCCATCCTGCCGTTGCCACGTTCCCGTGTCGTTCGGAGTCACCTAGTGCAG", "binding signal": "9050 fluorescence intensity (a.u.)"},
      {"sequence": "TTTTTCCTGAGCTAATCTGCAGTTCTTCGTGTTTTCAATTCGGAGTCACCTAGTGCAG", "binding signal": "9500 fluorescence intensity (a.u.)"},
      {"sequence": "AACATGATTAATATTTTATGTGTGACTTGCCTTTTTAATTCGGAGTCACCTAGTGCAG", "binding signal": "8460 fluorescence intensity (a.u.)"},
      {"sequence": "CACCTCACCCAACCAATCCGCCGCAGCCACCTCACCGCGTCGGAGTCACCTAGTGCAG", "binding signal": "8300 fluorescence intensity (a.u.)"},
      {"sequence": "AGCCATTCTCTGTTCCAAGTACAAAGGACAGCTATTTAACCGGAGTCACCTAGTGCAG", "binding signal": "8120 fluorescence intensity (a.u.)"},
      {"sequence": "GTCGCCGCCTCCATCTCCTGCGTCGCCGCGGCGTCTCACACGGAGTCACCTAGTGCAG", "binding signal": "10000 fluorescence intensity (a.u.)"},
      {"sequence": "GCATTCATCTCAGTCTCTCTCAGCTACCTCCCGCGATCCGCGGAGTCACCTAGTGCAG", "binding signal": "9350 fluorescence intensity (a.u.)"},
      {"sequence": "AAGGAGTGCTAGGGTTCCGTCCGTCCCAGCCTGGCCTACCCGGAGTCACCTAGTGCAG", "binding signal": "8410 fluorescence intensity (a.u.)"},
      {"sequence": "AGAACTAGAAGACCACACGCTGTCTCACTTGTTGCAAAATCGGAGTCACCTAGTGCAG", "binding signal": "8050 fluorescence intensity (a.u.)"},
      {"sequence": "GTGCGACGGCGGCGGCGAAGTCAGTCCCCTCCTCGAGGGGCGGAGTCACCTAGTGCAG", "binding signal": "27700 fluorescence intensity (a.u.)"},
      {"sequence": "GTACCGACAACACCAAGCTTGTCTGGCCTCAACTCTCTCGCGGAGTCACCTAGTGCAG", "binding signal": "8370 fluorescence intensity (a.u.)"},
      {"sequence": "TGGAGGAGGTGGTGGTGGTGGTAGTAGTAGTACGCCGGGGCGGAGTCACCTAGTGCAG", "binding signal": "14200 fluorescence intensity (a.u.)"},
      {"sequence": "GTAGTAGGTAGCAGCAGTCTCAAACATGTCTTCTGAGTAGCGGAGTCACCTAGTGCAG", "binding signal": "9420 fluorescence intensity (a.u.)"},
      {"sequence": "CGGCCCAAAGTTTATCTTCTTTCCTTCTGACTTCTTTGTGCGGAGTCACCTAGTGCAG", "binding signal": "8950 fluorescence intensity (a.u.)"},
      {"sequence": "CAGATCCCTTAACTTTACACCAAATCCGATTTTCGTTCTTCGGAGTCACCTAGTGCAG", "binding signal": "8060 fluorescence intensity (a.u.)"},
      {"sequence": "TGTTTTTTCTAGTTTCTTATGAGTCATTCCTAGCAAATTTCGGAGTCACCTAGTGCAG", "binding signal": "11200 fluorescence intensity (a.u.)"},
      {"sequence": "GCCAATCCGCCGCCGCCACCTCACCCAACCAATCCGCCGCCGGAGTCACCTAGTGCAG", "binding signal": "9900 fluorescence intensity (a.u.)"},
      {"sequence": "TATTTTTATGGGAATCGGATCTAGCTTTTTTTCACTTTTTCGGAGTCACCTAGTGCAG", "binding signal": "9350 fluorescence intensity (a.u.)"},
      {"sequence": "ACATTGGCCCCAGTTCATCAGTTAGAACGTGTTCACTTTTCGGAGTCACCTAGTGCAG", "binding signal": "11200 fluorescence intensity (a.u.)"},
      {"sequence": "CCCCGTTTGACCGCTTCGTCTCGTACTAGTACTACCGTCTCGGAGTCACCTAGTGCAG", "binding signal": "10200 fluorescence intensity (a.u.)"},
      {"sequence": "ATCCGTTCTCATCTCGTATATTTCTGAGGAAATAAAACTTCGGAGTCACCTAGTGCAG", "binding signal": "9110 fluorescence intensity (a.u.)"},
      {"sequence": "CCGATCCCCTTCCTCTATTTCTTTCGTTTCTTTTTTTTTTCGGAGTCACCTAGTGCAG", "binding signal": "8250 fluorescence intensity (a.u.)"},
      {"sequence": "TGTGCTCTCGTCTCTCTCCTCGCTTAAATCCTCGCCACCCCGGAGTCACCTAGTGCAG", "binding signal": "11100 fluorescence intensity (a.u.)"},
      {"sequence": "CTCTCCTATAAATCTCGCCGGCCGTCCTCACATCAGCGCACGGAGTCACCTAGTGCAG", "binding signal": "9650 fluorescence intensity (a.u.)"},
      {"sequence": "GGAAAAATACTACCCGTCCTCTGCTTCTCTCTTTCTTTCTCGGAGTCACCTAGTGCAG", "binding signal": "8870 fluorescence intensity (a.u.)"}
    ]}
  ]
}
